The results in this text go back to article PMC5686188.

Amino acid sequences for entries named in this document (tags omitted). A change or cut given only in a name is not applied to a line headed by its entry.
UniProt Q8I253: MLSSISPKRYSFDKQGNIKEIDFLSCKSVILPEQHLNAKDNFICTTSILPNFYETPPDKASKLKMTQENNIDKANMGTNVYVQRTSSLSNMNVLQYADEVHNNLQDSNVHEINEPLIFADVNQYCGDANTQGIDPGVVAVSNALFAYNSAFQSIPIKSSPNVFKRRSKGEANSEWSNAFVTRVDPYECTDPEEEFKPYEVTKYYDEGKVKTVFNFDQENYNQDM
UniProt Q8I4W8: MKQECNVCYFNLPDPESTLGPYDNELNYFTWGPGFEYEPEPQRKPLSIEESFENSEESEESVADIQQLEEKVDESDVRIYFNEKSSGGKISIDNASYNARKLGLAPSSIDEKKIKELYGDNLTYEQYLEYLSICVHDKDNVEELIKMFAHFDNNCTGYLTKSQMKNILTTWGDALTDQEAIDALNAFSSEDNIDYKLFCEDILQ
UniProt Q8IDR3: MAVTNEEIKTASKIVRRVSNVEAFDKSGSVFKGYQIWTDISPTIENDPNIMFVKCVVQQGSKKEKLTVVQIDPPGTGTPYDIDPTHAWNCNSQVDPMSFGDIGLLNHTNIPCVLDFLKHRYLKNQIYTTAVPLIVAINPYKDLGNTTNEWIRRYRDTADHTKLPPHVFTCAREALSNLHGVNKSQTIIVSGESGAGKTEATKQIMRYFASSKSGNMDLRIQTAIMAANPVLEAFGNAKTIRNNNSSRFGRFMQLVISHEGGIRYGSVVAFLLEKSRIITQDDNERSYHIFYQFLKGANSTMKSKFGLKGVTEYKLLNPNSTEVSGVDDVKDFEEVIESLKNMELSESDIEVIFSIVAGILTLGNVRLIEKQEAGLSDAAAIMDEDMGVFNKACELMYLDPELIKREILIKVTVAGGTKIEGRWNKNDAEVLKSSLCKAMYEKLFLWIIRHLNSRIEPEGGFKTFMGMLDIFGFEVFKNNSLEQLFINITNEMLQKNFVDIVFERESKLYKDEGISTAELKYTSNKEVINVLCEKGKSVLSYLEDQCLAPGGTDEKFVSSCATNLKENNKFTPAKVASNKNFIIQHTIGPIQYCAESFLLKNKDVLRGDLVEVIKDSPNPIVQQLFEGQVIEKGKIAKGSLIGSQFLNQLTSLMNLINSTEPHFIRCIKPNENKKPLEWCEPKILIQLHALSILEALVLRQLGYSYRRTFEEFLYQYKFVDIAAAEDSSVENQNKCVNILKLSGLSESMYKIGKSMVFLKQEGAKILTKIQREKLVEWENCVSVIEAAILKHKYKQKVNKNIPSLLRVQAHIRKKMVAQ
UniProt A0A0Y9W4B5: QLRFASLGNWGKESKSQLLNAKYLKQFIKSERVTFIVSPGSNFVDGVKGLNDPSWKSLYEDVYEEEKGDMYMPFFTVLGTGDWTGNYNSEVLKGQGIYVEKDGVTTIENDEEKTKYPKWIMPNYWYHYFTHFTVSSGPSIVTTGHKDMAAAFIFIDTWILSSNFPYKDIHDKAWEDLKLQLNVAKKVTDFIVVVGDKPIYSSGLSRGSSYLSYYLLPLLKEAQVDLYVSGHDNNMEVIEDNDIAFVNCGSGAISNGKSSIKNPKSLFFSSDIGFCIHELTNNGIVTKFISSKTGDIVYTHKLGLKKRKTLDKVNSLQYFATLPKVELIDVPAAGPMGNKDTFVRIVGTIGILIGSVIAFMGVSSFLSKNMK

Results are given in words; binding and its absence hold for the method and conditions named. In cells and extracts the contact can be indirect. Here binding means that the protein was enriched with, or labelled near, the bait; the list need not be complete. For some assays here: No binding means not detected with the bait.

Assay [1] addresses PfPhIL1-GFP (P. falciparum Photosensitized INA-Labelled protein 1 fused to GFP) (P. falciparum) (UniProt Q8I253). As to the kind of experiment: affinity purification with mass spectrometry; GFP-Trap_A beads (Chromotek) on mature schizont/merozoite lysate of P. falciparum PhIL1-GFP parasites; eluate digested with trypsin, peptides analysed by mass spectrometry; control: lysate of 3D7.

The target of assay [2] is PbPhIL1-GFP (P. berghei PhIL1 with C-terminal GFP) (P. berghei). Briefly: affinity purification with mass spectrometry; GFP-Trap beads on cell lysate of P. berghei PhIL1-GFP parasites; bound proteins digested with trypsin, peptides analysed by mass spectrometry; control: lysate of a P. berghei line ubiquitously expressing GFP.
Assay [3] concerns the target PfPhIL1-GFP (P. falciparum Photosensitized INA-Labelled protein 1 fused to GFP) (P. falciparum), Q8I253. Briefly: affinity purification with mass spectrometry; GFP-Trap_A beads (Chromotek) on mature schizont/merozoite lysate of P. falciparum PhIL1-GFP parasites; eluate digested with trypsin, peptides analysed by mass spectrometry; control: lysate of 3D7. As to conditions: remark: other sources report otherwise.

In the case of “P. falciparum myosin tail interacting protein (MTIP) (from UniProt Q8I4W8 1-204)”, in assay [1], the binding result was “no binding”. Take “P. falciparum class XIV myosin A (MyoA) (from UniProt Q8IDR3 1-818)”: in assay [1], the binding entry is listed as “no binding”. As for “P. berghei glideosome-associated protein 50 (GAP50) (from UniProt A0A0Y9W4B5)”, the binding entry in assay [2] is recorded as “binds”.

B1: P. falciparum glideosome-associated protein 40 (GAP40) (protein, UniProt Q8I3V1 1-456)
chain: MKFEKFNIPEWSDIERYFKDPELLTAEILFVALTLCNVFVMYRLFLDVIPYPIFVTWWQLAQGLLVAYVCGELGREFPKFAYFPKVEINENMLKVLFVPSIFYCLMLVLSNYLLYKTPCIASYPVLVSFTVVFHHLTRFIGCGEEYMPLRWKSIVFLLAAFIIGCFDSKTTGKGVIVWALLYALFSAIFRAGFMQKIMHLVDGKGNTLHNNQHLLGVLILPVLILLSGELSVFVHMPYDITSLHTWQMWGCLITVGTLPFIKNVISNRLVRRTGQGPWRFLEIISIILVFFIGMTYNAPSFKGYLAILCVIIGRSLGAFDVLLNASDYMHAEDERKRKNPRASYAKSRQGTQASKPFLSSADNEEDEESSFSSNDSKSYQGSQDYDDKESVNSSSQQYSVHKGTSHMDSSSNQTSHGVISADEGRGEHSRAATFKSKSKLSRNYSSKQHEMLDSQA
In the case of B1, in assay [1], the binding entry is recorded as “no binding”.

B2: P. falciparum glideosome-associated protein 45 (GAP45), Q8I5I8 1-204 (protein)
chain: MGNKCSRSKVKEPKRKDIDELAERENLKKQSEEIIEEKPEEVVEQVEETHEEPLEQEQELDEQKIEEEEEEPEQVPKEEIDYATQENKSFEEKHLEDLERSNSDIYSESQKFDNASDKLETGTQLTLSTEATGAVQQITKLSEPAHEESIYFTYRSVTPCDMNKLDETAKVFSRRCGCDLGERHDENACKICRKIDLSDTPLLS
For B2, in assay [3], the binding entry is reported as “no binding”.
